This is an account of results in publication PMC5996148.

The list shows a part of the results.

Among the test systems are USP48 (human); UTP3 (human); Ubiquilin-4 (human); VAC14 (human).
Assay in all cases: protein microarray (ProtoArray v5.0), streptavidin-Alexa Fluor 647
Conditions in all cases: 3'-biotin; 20 mM Tris (pH 7.5), 5 mM MgCl2, 100 mM KCl, 0.1% Tween-20, A/T-rich and random oligonucleotide blockers; temperature not stated; high values mean tight binding

The subject of assay [1] is Ubiquilin-like protein (human).
Assay [2] relates to Ubiquitin carboxyl-terminal hydrolase 24 (human).
The test system of assay [3] is Ubiquitin-conjugating enzyme E2 Z (human).
The subject of assay [4] is Uncharacterized protein C11orf48 (human).
In assay [5] the test system is Uncharacterized protein C11orf74 (human).
Assay [6] relates to Uncharacterized protein C12orf60 (human).
Assay [7] relates to Uncharacterized protein C17orf66 (human).
Assay [8] has as its system Uncharacterized protein C18orf1 (human).
Assay [9] has as its system Uncharacterized protein C1orf74 (human).
For assay [10], the system named is Uncharacterized protein C2orf57 (human).
Assay [11] relates to Uncharacterized protein C2orf62 (human).
Assay [12] concerns Uncharacterized protein C7orf50 (human).
For assay [13], the system named is Uncharacterized protein C8orf41 (human).
In assay [14] the test system is Uridine-cytidine kinase 2 (human).
Assay [15] relates to V-type proton ATPase subunit F (human).
The subject of assay [16] is V-type proton ATPase subunit e 1 (human).

With “GGGGACAGGGGTATGGGGAGGGG [G4-3 biotinylated (CtG)]”, the binding signal is -0.334 z-score with USP48 (human); -0.349 z-score with UTP3 (human); -0.324 z-score in the assay with Ubiquilin-4 (human); -0.329 z-score in assay [1]; -0.333 z-score in assay [2]; -0.302 z-score in assay [3]. In addition, the binding signal in assay [4] is -0.331 z-score; in assay [5] it was -0.333 z-score; in assay [6], -0.325 z-score; in assay [7] it was -0.326 z-score; in assay [8], -0.327 z-score; in [9], -0.327 z-score. Moreover, the binding signal is -0.327 z-score in assay [10]; -0.338 z-score in assay [11]; 3.5 z-score in assay [12]; -0.328 z-score in assay [13]; -0.326 z-score in assay [14]; -0.342 z-score in [15]. The binding signal in [16] is -0.325 z-score; in the assay on VAC14 (human), -0.33 z-score.
